From patent US12365672B2, “Compounds and their use for the treatment of alpha1-antitrypsin deficiency” (CENTESSA PHARMACEUTICALS (UK) LIMITED, priority 2019, dated 2025)
Some results were stated once for a whole list of compounds, not compound by compound.

The chains behind the UniProt entries cited, without tags or fusion partners. Residues count along the entry.
UniProt P01009, 25-418 E366K: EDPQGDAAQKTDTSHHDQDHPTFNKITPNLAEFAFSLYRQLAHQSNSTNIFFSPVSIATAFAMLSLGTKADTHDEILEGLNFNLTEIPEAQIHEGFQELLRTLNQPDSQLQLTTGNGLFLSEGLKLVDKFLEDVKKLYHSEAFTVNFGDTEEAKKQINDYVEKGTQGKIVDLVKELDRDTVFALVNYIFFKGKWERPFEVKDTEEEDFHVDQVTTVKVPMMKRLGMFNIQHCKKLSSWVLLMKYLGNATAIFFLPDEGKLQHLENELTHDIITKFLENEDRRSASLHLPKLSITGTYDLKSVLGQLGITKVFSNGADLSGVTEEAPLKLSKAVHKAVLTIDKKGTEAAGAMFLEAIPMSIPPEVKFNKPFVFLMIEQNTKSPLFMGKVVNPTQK

Target: T1, human Z A1AT (Homo sapiens, UniProt P01009, E366K)
T1 construct: expressed in transfected cells; host or cells: HEK-Z cells (human embryonic kidney cell line)
Assay: A1AT cell secretion assay using HEK-Z cells (ELISA of supernatant)
Format: cell-based
Settings: at 33 nM
Description: HEK-Z cells, a human embryonic kidney cell line stably transfected with the human Z A1AT gene, were plated into 96 well plates (3.0×10^5 cells/ml with 200 μl of media/well) overnight at 37° C. in a humidified atmosphere containing 5% CO2. Following incubation cells were washed with 200 μl serum-free media three times and media was replaced with treatments in quadruplicate using serum free media containing either vehicle, 10 μM suberanilohydroxamic acid (SAHA) or a compound of the invention (at concentrations of 10, 33, 100 and 333 nM) for 48 h in a 37° C. incubator in a final volume of 200 μl. […]
Briefly, a 96 well plate was coated with human A1AT capture antibody overnight at room temperature (1:180 dilution from stock, 100 μl final volume/well). […] After which, 50 μl stop solution (2M H2SO4) was added and optical density (OD) of each well was read at 450 nm with 570 nm blank subtracted from each well using a microplate reader. A 4 parameter logistic curve was constructed using GraphPad Prism 7 and A1AT concentrations were determined in each sample by interpolation from a standard curve and multiplying by the appropriate dilution factor.

**Q.** For `O=c1cc[nH]c(=O)n1Cc1ccc(-c2ncco2)cc1` [Example 3, 3-(4-(oxazol-2-yl)benzyl)pyrimidine-2,4(1H,3H)-dione], which “secretion of Z A1AT from HEK-Z cells” value is on record?
**A.** increase secretion
